# Reference: patent US8138170B2, “Immunosuppressive Ningalin compounds” (Memorial Sloan-Kettering Cancer Center, priority 2004, dated 2012)
# Test system: human lymphocytes
# Test: Inhibition of PHA-stimulated lymphocyte proliferation ([3H]thymidine incorporation)
# Type: cell-based
# Conditions: cytotoxicity IC50 / immunosuppressive IC50
row,SMILES,Selectivity Ratio [A]/[B]
1,"COc1ccc(CCn2c(C(=O)N(C)C)c(-c3ccc(OC)c(OC)c3)c3c4cc(OC)c(OC)cc4oc(=O)c32)cc1OC [Ningalin N5, 1-(3,4-Dimethoxy-phenyl)-3-[2-(3,4-dimethoxy-phenyl)-ethyl]-7,8-dimethoxy-4-oxo-3,4-dihydro-5-oxa-3-aza-cyclopenta[α]naphthalene-2-carboxylic acid dimethylamide]",100.3
2,"COc1ccc(CCn2cc(-c3ccc(OC)c(OC)c3)c3c4cc(OC)c(OC)cc4oc(=O)c32)cc1OC [Ningalin N3, 1-(3,4-Dimethoxy-phenyl)-3-[2-(3,4-dimethoxy-phenyl)-ethyl]-7,8-dimethoxy-3H-5-oxa-3-aza-cyclopenta[α]naphthalen-4-one]",100.6
